The values below come from paper doi:10.1101/2025.06.23.661224.

No constants are given. Whether binding was seen depends on the method and setting. Binding can be weak; no strength is given.

The assay addresses T1, isoamylase 1 (potato ISA1) (potato (Solanum tuberosum)) (UniProt Q84YG7).
T1 sequence: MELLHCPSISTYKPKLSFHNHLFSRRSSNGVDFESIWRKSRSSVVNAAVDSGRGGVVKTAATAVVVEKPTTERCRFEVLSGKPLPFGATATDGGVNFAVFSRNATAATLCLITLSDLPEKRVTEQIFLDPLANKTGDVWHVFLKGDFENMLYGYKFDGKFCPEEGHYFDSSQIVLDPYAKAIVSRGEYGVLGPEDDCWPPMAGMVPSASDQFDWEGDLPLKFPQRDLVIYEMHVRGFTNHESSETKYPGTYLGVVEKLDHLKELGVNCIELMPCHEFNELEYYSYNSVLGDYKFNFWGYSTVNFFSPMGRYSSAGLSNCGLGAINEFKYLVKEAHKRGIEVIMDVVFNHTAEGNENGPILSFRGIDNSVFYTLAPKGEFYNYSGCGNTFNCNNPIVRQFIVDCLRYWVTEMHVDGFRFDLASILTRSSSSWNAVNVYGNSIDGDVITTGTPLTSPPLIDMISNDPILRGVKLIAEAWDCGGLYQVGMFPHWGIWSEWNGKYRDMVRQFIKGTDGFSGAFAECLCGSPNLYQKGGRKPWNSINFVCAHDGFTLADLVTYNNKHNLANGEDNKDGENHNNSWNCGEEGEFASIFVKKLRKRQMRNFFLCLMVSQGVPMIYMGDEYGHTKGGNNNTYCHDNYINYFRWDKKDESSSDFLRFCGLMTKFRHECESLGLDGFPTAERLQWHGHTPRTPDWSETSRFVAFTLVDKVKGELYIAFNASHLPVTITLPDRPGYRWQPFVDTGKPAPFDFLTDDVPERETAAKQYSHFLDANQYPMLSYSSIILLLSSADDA
Nature of the assay: two-hybrid.

For the substance LIKE EARLY STARVATION (potato LESV), the binding entry is “binds”.
